Measurements published in article PMC12036875, “Mitochondria-targeting natural product rhein conjugated with dichloroacetate as the dual inhibitor of glycolysis and oxidative phosphorylation to off energize cancer cells and induce ROS storm” (Theranostics, 2025).

Test system: mitochondria of 4T1 cells
Assay: Cell uptake and organelle localization (CLSM)
Format: cell-based, Mouse
Conditions: 24 h, ImageJ
Text: In order to evaluate the positive effect of the conjugation of rhein and DCA on anti-cancer aspect, cellular uptake of Rhein-DCA conjugate in 4T1 cells was first examined by confocal laser scanning microscope (CLSM). Based on the fluorescence properties of Rhein-DCA conjugate, green fluorescence signal indicated its distribution within the cells. […] The green fluorescence of rhein was highly overlapped with the red fluorescence of mitochondria (Mito tracker red) and merged into yellow fluorescence in rhein and Rhein-DCA groups.
4T1 cells were seeded in confocal dishes at a density of 10 × 10^4 cells per dish and cultured in the incubator for 24 h. And the cells were further treated with Rhein-DCA conjugate at a concentration of 6.25 μM for 0, 2, 6, 12 or 24 h, respectively. Thereafter, the cells were washed twice with PBS and stained with Hoechst 33342 (10 μg/mL) for 15 min in the dark at room temperature, followed by another two washes with PBS. Finally, the fluorescence intensity of cells was monitored with confocal microscope with excitation wavelengths (Ex) of 488 nm, emission wavelengths (Em) of 525 ± 25 nm, and Ex of 405 nm, Em of 447 ± 30 nm, respectively. […]

Compound | pearson's correlation coefficient with Mito Tracker Deep Red FM
O=C(O)c1cc(O)c2c(c1)C(=O)c1cccc(O)c1C2=O [Rhein, 4,5-dihydroxyanthraquinone-2-carboxylic acid] | 0.91
O=C(OCCOC(=O)C(Cl)Cl)c1cc(O)c2c(c1)C(=O)c1cccc(O)c1C2=O [Rhein-DCA] | 0.92
